Measurements from doi:10.1101/2025.06.08.658527.
Results are given in words; binding and its absence hold for the method and conditions named. Some binding calls cover weakened binding; strength is not graded here.

Amino acid sequences for entries named in this document (tags omitted). Residues count along the entry.
UniProt P51668, residues 2-147: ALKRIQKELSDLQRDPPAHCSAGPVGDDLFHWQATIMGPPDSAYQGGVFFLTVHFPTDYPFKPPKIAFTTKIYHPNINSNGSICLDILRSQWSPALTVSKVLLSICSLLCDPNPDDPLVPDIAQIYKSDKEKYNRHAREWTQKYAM
UniProt P62877, residues 2-108: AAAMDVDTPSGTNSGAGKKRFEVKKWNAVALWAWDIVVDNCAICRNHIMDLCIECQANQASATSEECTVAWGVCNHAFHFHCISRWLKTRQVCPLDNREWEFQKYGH

Target: UbcH5a (UniProt P51668)
Experiment: cryo-EM structure

binding: binds
Substance: RBX1 (from UniProt P62877) (enzyme)
